No constants are given. Whether binding was seen depends on the method and setting. In cells and extracts the contact can be indirect. Some results given as binding are weak or reduced against the parent protein; the word gives no strength.
Assays:
[1] = target: T1, endogenous PP2A/B55α (human (endogenous in HEK293 and HeLa)) (UniProt P63151); assay: co-IP; endogenous proteins; HeLa, BT549 (also MB231, MB435) cells treated with 100 nM Nocodazole for 5 hours, or HeLa cells released from a double thymidine block; NP-40 lysis buffer, antibody 4 °C 16 hours, Protein A/G beads, Western blot
T1 sequence: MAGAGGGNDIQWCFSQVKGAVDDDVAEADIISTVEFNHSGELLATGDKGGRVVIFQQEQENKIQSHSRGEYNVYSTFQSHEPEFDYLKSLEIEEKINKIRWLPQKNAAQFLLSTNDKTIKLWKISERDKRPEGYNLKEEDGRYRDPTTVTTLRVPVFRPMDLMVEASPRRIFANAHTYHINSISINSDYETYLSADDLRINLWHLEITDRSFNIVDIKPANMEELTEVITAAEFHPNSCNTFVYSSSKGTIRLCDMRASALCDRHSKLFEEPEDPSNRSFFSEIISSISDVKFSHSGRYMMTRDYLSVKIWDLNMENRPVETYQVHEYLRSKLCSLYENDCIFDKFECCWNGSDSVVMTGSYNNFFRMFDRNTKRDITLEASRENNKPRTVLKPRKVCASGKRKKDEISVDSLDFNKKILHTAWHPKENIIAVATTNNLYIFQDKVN

The chains behind the UniProt entries cited, without tags or fusion partners.
UniProt P06493: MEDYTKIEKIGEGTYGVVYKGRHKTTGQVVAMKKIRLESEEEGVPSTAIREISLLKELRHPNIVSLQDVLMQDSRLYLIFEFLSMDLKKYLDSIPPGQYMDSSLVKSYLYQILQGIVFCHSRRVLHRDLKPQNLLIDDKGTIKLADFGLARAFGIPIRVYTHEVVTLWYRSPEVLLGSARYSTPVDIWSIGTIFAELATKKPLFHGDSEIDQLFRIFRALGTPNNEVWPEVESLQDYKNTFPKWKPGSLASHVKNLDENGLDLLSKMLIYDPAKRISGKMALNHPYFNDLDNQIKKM
UniProt P52732: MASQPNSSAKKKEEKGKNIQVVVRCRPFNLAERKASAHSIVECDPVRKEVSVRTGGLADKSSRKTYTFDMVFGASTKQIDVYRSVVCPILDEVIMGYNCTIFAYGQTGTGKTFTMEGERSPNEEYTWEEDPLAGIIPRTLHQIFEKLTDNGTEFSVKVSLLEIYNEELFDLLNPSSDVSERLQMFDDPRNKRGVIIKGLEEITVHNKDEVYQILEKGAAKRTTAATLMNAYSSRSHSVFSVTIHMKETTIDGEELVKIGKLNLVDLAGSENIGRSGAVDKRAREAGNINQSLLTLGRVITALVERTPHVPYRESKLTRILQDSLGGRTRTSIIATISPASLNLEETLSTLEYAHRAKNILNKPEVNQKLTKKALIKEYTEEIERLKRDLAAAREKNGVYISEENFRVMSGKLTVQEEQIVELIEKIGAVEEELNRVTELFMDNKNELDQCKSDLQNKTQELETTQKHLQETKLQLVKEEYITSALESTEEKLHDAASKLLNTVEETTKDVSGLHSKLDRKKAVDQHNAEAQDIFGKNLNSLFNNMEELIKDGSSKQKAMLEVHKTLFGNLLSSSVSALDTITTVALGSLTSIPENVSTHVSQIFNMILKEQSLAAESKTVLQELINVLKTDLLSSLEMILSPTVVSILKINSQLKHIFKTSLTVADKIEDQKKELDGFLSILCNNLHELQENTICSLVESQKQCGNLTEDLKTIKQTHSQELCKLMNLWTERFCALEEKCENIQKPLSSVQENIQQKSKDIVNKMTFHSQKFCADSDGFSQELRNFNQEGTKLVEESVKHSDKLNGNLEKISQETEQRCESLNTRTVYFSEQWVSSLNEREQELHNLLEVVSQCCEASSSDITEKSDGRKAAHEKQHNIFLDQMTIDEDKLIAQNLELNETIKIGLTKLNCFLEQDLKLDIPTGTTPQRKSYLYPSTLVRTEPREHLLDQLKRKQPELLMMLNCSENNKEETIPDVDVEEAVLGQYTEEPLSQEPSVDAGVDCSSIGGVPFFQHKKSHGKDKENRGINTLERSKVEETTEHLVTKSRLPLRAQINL

[2] = target: endogenous CDK1 (human (endogenous in HeLa)) (UniProt P06493); assay: as above

endogenous EG5 (KIF11) (from UniProt P52732 1-1056)
binding [1]: binds
binding [2]: binds

From publication PMC5431654
